Assay results from PubChem BioAssay AID602313 (National Center for Advancing Translational Sciences (NCATS), 2012).
Screen size: about 390,000 compounds; about 760 (0.19%) were called active. The inconclusive results got no clear call from the source; some entries with a clear call stand among them for comparison. The call rests on the fitted dose curve; in most records, active means well fitted inhibition curve with a large enough effect; inconclusive means small, poorly fitted or top-dose-only effect; inactive means flat fitted curve, though single readings scatter. Potencies of inconclusive entries are doubtful fits and often do not repeat.

experiment: qHTS for Inhibitors of Vif-A3F Interactions: qHTS; conditions: HeLa A3F-eYFP + Vif (tagged APOBEC3F with the HIV-1 protein that degrades it), YFP fluorescence increase; series mostly up to 46.1 µM; further: nearly all actives have a fitted effect of over 65% in size
How it was run: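 HeLa cells stably expressing Vif plus C-terminally eYFP-tagged A3F were seeded, incubated overnight at 37 deg C, dosed with compound, incubated overnight again at 37 deg C. Yellow fluorescence (Ex 488/Em 500-530) reported blocked Vif-mediated A3F-eYFP degradation.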
Potency means the concentration at half of the fitted maximal effect.

Compound | Potency
O=C(NC(=S)Nc1ccccc1N1CCOCC1)c1ccc(Br)cc1 | inactive
O=C(CCS(=O)(=O)c1nc(-c2cccs2)cc(C(F)(F)F)n1)Nc1ccc(OC(F)(F)F)cc1 | inactive
COc1ccc(-c2cc(C)no2)cc1S(=O)(=O)N1CCOc2ccccc21 | inconclusive: 17.8 µM [inhibitor, single point]
N#Cc1c(N)n(CCNC(=O)c2ccccc2)c2nc3ccccc3nc12 | inconclusive: 25.1 µM [inhibitor, single point]
O=C(/C=C/c1ccc(Cl)cc1)N(Cc1ccccc1)C1CCS(=O)(=O)C1 (stereo not drawn) | inactive
COc1ccc(CCc2ccc3cc(OC)ccc3n2)cc1 | inactive
O=S(=O)(Nc1nc2n(n1)C(c1ccc(F)cc1)C=C(c1ccccc1)N2)c1ccccc1 (stereo not drawn) | inconclusive: 22.4 µM [inhibitor, single point]
COc1cc(CN(C)CCc2ccccn2)cc(OC)c1OC | inactive
COc1ccc(C2CC(=O)c3cc(-c4nc(-c5ccc(Cl)cc5)c(C)s4)c(=O)[nH]c3C2)cc1 (stereo not drawn) | inconclusive: 3.16 µM [inhibitor, full curve, poor fit]
Cc1c2c(cc3c1[nH]c1ccccc13)C=NCC2 | inconclusive: 31.6 µM [inhibitor, single point]
O=C1Nc2ccccc2C1=Nc1ccc(Br)cc1 | inactive
COc1ccc(CCN2CCC(Nc3nc4ccccc4n3Cc3ccc(F)cc3)CC2)cc1 | inactive
Cc1ccc(-c2nc(SCCOc3ccccc3C)n3[nH]c(=O)cc3n2)cc1 | inconclusive: 22.4 µM [inhibitor, partial curve]
COC(=O)c1ccccc1NC(=O)CSc1nc2ccccc2nc1Cc1ccccc1OC | inactive
Cc1cc2c(N=O)c(NO)ccc2[nH]1 | inconclusive: 7.08 µM [inhibitor, full curve, poor fit]
COc1ccc2c(c1)c1nc3ccccc3nc1n2Cc1ccc(OC)c(OC)c1 | active: 25.1 µM
O=C1S/C(=C\c2ccc(N3CCOCC3)o2)C(=O)N1c1ccccc1 | inconclusive: 3.16 µM [inhibitor, partial curve, poor fit]
S=C(NCCSCc1ccc(Cl)cc1)Nc1ccccc1 | inconclusive: 5.62 µM [inhibitor, full curve, poor fit]
CC1(C)CC(CC(=O)NNc2nc(-c3ccccc3)cs2)C(=O)O1 (stereo not drawn) | inactive
COc1ccc2cc(CCC(C)=O)ccc2c1 | inactive
Cc1ccc(N2CCN(c3nc4ccc(C)cc4n4nnnc34)CC2)c(C)c1 | inconclusive: 22.4 µM [inhibitor, partial curve, poor fit]
CCOc1ccccc1NC(=O)CSc1nc2ccccc2c2nc(CCn3cncc3C)nn12 | inconclusive: 35.5 µM [inhibitor, single point]
CC(=O)c1cc(NC(=O)c2ccccc2)c(=O)oc1/C=C/N(C)C | inconclusive: 20 µM [inhibitor, partial curve, poor fit]
COc1ccccc1C(=O)NNC(=O)C1CCCO1 (stereo not drawn) | inconclusive: 22.4 µM [inhibitor, partial curve]
Cc1ccc(-c2nc3scc(CCNC(=O)c4cccc(Br)c4)n3n2)cc1 | inconclusive: 28.2 µM [inhibitor, single point]

Look-ups from the results shown:
For Potency, O=C(CCS(=O)(=O)c1nc(-c2cccs2)cc(C(F)(F)F)n1)Nc1ccc(OC(F)(F)F)cc1 shows inactive
For Potency, N#Cc1c(N)n(CCNC(=O)c2ccccc2)c2nc3ccccc3nc12 shows inconclusive: 25.1 µM [inhibitor, single point]
For Potency, CCOc1ccccc1NC(=O)CSc1nc2ccccc2c2nc(CCn3cncc3C)nn12 shows inconclusive: 35.5 µM [inhibitor, single point]

Additional results

Compound | Potency
COc1ccc(C(CC(=O)O)NC(=O)COc2cc(C)ccc2C)cc1OC (stereo not drawn) | inconclusive: 10 µM [inhibitor, partial curve, poor fit]
CCOC(=O)c1cc(CC)sc1NC(=O)c1cc(OCC)c(OCC)c(OCC)c1 | inactive
CC(=O)c1cc(NC(=O)c2cccc(C(F)(F)F)c2)c(=O)oc1/C=C/N(C)C | inconclusive: 22.4 µM [inhibitor, partial curve, poor fit]
Cc1nnc(NC(=O)c2nc(S(=O)(=O)Cc3ccccc3C)ncc2Cl)s1 | inactive
CC(C)c1ccc(S(=O)(=O)N2CCCCC2)cc1 | inconclusive: 4.47 µM [inhibitor, single point]
Cc1ccc(NC(=S)NC2CCSc3ccccc32)cc1C (stereo not drawn) | inconclusive: 17.8 µM [inhibitor, single point]
COc1cc(C=C2CCCC(=Cc3ccc(OCC4CO4)c(OC)c3)C2=O)ccc1OCC1CO1 (stereo not drawn) | inconclusive: 2.82 µM [inhibitor, partial curve, poor fit]
CC(C)(C)c1ccc(C(=O)Nc2ccc(CN3CCS(=O)(=O)CC3)cc2)cc1 | inactive
CN(C)CCN(C(=O)/C=C/c1cccs1)c1nc2c(F)cc(F)cc2s1 | active: 11.2 µM
Oc1c(Br)cc(Br)cc1/C=N/Nc1ccc(Cl)nn1 | inconclusive: 0.631 µM [inhibitor, full curve, poor fit]
ON=C1c2ccccc2-c2ccc(F)cc21 | inactive
Cc1cccnc1CCNC(=O)CC1C(=O)NCCN1CC1CCCCC1 (stereo not drawn) | inconclusive: 11.2 µM [inhibitor, single point]
C=CCN1C(=O)C2(NNc3ccccc3O2)c2ccccc21 (stereo not drawn) | inconclusive: 28.2 µM [inhibitor, single point]
O=c1c(O)c(-c2cccs2)oc2ccc(Cl)cc12 | inconclusive: 3.16 µM [inhibitor, partial curve, poor fit]
N#C/C(=C\c1cccs1)C(=O)c1ccccc1 | inconclusive: 3.16 µM [inhibitor, partial curve, poor fit]
CSc1nsc(/C=C/Nc2ccc(Cl)cc2)c1C#N | inconclusive: 35.5 µM [inhibitor, single point]
COC(=O)c1c(NC(=O)c2ccc(S(=O)(=O)N3CCCC(C)C3)cc2)sc2c1CCN(C(C)C)C2 (stereo not drawn) | inconclusive: 20 µM [inhibitor, single point]
O=C(O)C1CC1C(=O)Nc1nc2c(Cl)cccc2s1 (stereo not drawn) | inactive
Cc1ccccc1CC(=O)NC1CCCCCC1 | inactive
Cc1ccccc1Oc1cc(NC(=O)Cn2cnc([N+](=O)[O-])c2)cc([N+](=O)[O-])c1 | inconclusive: 35.5 µM [inhibitor, single point]
Cc1ccc(/C=C2/N=C(c3ccccc3)NNC2=O)cc1 | inconclusive: 35.5 µM [inhibitor, single point]
COc1c(C(=O)Nc2ccc3[nH]c(=O)[nH]c3c2)cc2ccccc2c1Br | inactive
Cc1cc(N2CCCC2)c(F)cc1/C=C\[N+](=O)[O-] | inconclusive: 35.5 µM [inhibitor, single point]
O=C1ON=C(c2ccccc2[N+](=O)[O-])/C1=C/c1cccc([N+](=O)[O-])c1O | inactive
CCCc1cc(=O)oc2c3c(cc(OCC(=O)N4CCC[C@H]4C(=O)O)c12)OC(C)(C)CC3 | inactive

Compound | Potency
Nc1ccc(C(=O)OCCc2ccccc2)cc1 | inactive
COc1ccc(/C=C2\N=C(C(C)(C)C)OC2=O)c(OC)c1 | inactive
O=[N+]([O-])c1ccc(Oc2cccc3cccnc23)c([N+](=O)[O-])c1 | inconclusive: 25.1 µM [inhibitor, single point]
CC(=O)Oc1ccc2nc(/C=C/c3ccc(C=O)cc3)oc(=O)c2c1 | inactive
CC1(c2nnc(Cc3ccccc3)o2)CC(c2ccc(C#N)cc2)=NO1 (stereo not drawn) | inactive
CN(C)S(=O)(=O)c1ccc(S(=O)(=O)N(Cc2ccco2)Cc2ccccc2Cl)cc1 | inactive
COCCNC(=O)C(=O)NNS(=O)(=O)c1ccc(Cl)cc1 | inactive
CCCCn1c(N)c(N(CCOC)C(=O)COC(=O)c2cc(CC)c(C)s2)c(=O)[nH]c1=O | inconclusive: 3.16 µM [inhibitor, full curve]
CCc1c(C)c(C#N)c2nc3ccccc3n2c1NCc1ccccn1 | inconclusive: 11.2 µM [inhibitor, partial curve, poor fit]
Cc1cc(C)c(C#N)c(SCc2nc3ccccc3c(=O)[nH]2)n1 | inconclusive: 17.8 µM [inhibitor, partial curve, poor fit]
Cc1ccc(-c2c3c([nH]c(=S)c2C#N)CCCC3)o1 | inactive
Cc1csc(NC(=O)CSCC(=O)O)c1-c1nc2ccccc2s1 | inconclusive: 35.5 µM [inhibitor, single point]
O=C(NC(=S)N1CCCC1)c1ccccc1Cl | inconclusive: 35.5 µM [inhibitor, single point]
COc1ccc2oc(=O)c(C(=O)Nc3ccccc3-c3ccccc3)cc2c1 | inconclusive: 5.01 µM [inhibitor, single point]
CCC(C)(C)n1nnnc1C(c1cccnc1)N1CCC(Cc2ccccc2)CC1 (stereo not drawn) | inactive
C=CCN=c1scc(-c2ccco2)n1/N=C/c1ccc(O)c(O)c1O | inconclusive: 35.5 µM [inhibitor, single point]
CCCCn1c(N)c(N(CCOC)C(=O)c2cc(-c3ccc(F)cc3)nc3ccccc23)c(=O)[nH]c1=O | inconclusive: 25.1 µM [inhibitor, single point]
O=C1N(Cc2cccc(Cl)c2)C[C@@H]2C[C@@H](c3cccc4cccnc34)N3CCC[C@@]123 | inconclusive: 35.5 µM [inhibitor, single point]
Cc1cc(=O)[nH]c2c(C)c(N)ccc12 | inactive
O=C(/C=C\Nc1ccc2c(c1)OCO2)c1ccc(Cl)s1 | inconclusive: 35.5 µM [inhibitor, single point]
c1ccc(-c2cn3c(n2)CCc2ccc4cccnc4c2-3)cc1 | inconclusive: 5.62 µM [inhibitor, single point]
CCc1c(C)nc2cc(-c3cccc(Br)c3)[nH]n2c1=O | inconclusive: 28.2 µM [inhibitor, single point]
CN1CCN(C(=O)c2cc3nc(-c4ccco4)cc(C(F)(F)F)n3n2)CC1 | inconclusive: 11.2 µM [inhibitor, partial curve, poor fit]
